We go through two sequences from doi:10.1101/2023.12.05.570080.

For data set [1], the target named is T1, SUVH5 (Arabidopsis thaliana (cell culture)) (UniProt O82175).
T1 sequence (looked up, limits assumed): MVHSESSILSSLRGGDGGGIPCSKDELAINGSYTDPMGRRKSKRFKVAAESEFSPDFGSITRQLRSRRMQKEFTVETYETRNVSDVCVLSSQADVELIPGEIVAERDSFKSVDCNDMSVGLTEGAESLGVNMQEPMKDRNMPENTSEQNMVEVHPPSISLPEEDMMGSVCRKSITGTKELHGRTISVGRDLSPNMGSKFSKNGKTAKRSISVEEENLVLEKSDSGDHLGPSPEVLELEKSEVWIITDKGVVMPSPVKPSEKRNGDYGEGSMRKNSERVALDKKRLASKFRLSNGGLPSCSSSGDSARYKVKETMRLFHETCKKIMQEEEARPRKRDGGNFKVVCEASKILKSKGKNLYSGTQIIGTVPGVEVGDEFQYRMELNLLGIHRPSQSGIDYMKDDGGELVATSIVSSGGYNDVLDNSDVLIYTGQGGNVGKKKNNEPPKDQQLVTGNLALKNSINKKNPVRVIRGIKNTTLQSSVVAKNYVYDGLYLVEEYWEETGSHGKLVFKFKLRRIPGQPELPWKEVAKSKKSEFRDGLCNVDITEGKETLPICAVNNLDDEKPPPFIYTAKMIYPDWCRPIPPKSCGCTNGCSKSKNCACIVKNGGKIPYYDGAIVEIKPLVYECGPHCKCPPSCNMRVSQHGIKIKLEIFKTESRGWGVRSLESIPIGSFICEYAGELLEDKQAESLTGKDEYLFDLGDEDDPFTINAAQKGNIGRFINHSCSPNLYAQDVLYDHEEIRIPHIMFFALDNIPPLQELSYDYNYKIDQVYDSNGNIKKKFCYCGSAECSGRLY
Briefly: pull-down LC-MS/MS. The following applies: protein in an extract.

Data set [2] has as its target T2, SUVH2 (Arabidopsis thaliana (cell culture)) (UniProt O22781).
T2 sequence (looked up, limits assumed): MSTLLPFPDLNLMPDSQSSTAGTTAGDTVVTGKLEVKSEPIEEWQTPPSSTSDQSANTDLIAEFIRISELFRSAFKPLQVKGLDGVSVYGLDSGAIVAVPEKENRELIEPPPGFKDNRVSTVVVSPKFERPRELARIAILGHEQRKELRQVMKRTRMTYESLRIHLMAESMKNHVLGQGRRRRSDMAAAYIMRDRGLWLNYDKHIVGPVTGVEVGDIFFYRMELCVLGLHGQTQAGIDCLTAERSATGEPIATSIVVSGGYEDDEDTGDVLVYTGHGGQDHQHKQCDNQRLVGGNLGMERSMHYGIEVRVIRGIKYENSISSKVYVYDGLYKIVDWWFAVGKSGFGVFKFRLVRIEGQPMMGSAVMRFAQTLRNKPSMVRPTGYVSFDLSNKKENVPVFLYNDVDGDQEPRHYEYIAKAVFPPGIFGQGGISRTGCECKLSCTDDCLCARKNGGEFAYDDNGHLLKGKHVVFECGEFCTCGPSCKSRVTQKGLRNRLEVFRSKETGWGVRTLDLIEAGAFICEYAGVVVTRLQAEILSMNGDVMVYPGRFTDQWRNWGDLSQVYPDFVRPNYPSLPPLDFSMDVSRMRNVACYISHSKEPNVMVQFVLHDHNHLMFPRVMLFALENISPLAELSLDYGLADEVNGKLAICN
Briefly: pull-down LC-MS/MS. The following applies: protein in an extract.

Construct, isoform or probe ends are uncertain for at least one entry. At least one result comes from cells or an extract, where the contact may be indirect. The comparison behind a weaker result is the experiment's own reference, which may not be listed here. At least one verdict rests on a figure or table, not on a statement of the authors. Where a protein sequence is shown, tags need not be part of it.

Regarding “GATGATGTCAATTCAATTCAATTCAATATGATG (double strand) [unmethylated CHH probe (CHH3/CHH2)]”, the binding result in data set [1] and in data set [2] was “binds more weakly” each time.
In the case of “GATGATGTCAATTCAATTCAATTCAATATGATG (double strand) [methylated CHH probe (CHH1/CHH2)]”, the binding result in data set [1] (mC at 9,14,19,24 of strand 1) and in data set [2] (mC at 9,14,19,24 of strand 1) was “binds” throughout.
